# Screening data, single-dose tests

Sequences of proteins named here, by UniProt entry; tags and fusion partners are left off. Residues count along the entry.
UniProt Q8IDJ8, 1-583: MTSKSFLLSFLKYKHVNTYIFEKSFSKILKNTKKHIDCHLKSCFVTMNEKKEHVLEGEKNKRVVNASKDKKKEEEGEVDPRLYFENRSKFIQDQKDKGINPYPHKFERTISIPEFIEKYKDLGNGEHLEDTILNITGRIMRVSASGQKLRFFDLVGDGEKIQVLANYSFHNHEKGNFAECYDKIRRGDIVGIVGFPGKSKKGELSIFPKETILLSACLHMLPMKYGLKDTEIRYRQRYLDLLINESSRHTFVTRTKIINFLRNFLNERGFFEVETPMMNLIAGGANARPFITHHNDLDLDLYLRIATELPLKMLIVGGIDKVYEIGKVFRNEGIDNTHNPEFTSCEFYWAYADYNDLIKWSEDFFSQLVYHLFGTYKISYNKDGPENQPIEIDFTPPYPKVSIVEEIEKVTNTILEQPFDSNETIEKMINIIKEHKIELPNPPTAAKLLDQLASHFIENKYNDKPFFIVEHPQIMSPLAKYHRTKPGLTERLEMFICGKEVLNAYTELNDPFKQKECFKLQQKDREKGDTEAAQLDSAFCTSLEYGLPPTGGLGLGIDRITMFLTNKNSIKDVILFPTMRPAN
UniProt Q4DA54, 1-478: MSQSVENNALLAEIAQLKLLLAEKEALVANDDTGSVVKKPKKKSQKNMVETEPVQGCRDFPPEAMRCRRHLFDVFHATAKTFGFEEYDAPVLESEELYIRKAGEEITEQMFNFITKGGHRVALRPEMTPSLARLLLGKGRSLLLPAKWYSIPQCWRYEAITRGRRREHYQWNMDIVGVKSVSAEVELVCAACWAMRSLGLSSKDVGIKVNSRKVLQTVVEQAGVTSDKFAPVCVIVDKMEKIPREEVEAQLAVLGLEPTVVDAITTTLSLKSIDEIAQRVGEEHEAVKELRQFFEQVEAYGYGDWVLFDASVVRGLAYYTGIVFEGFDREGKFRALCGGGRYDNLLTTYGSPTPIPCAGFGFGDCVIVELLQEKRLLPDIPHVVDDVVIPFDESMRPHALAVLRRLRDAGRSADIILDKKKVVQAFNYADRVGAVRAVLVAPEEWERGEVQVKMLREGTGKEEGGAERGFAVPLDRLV
UniProt I6X8D2, whole entry: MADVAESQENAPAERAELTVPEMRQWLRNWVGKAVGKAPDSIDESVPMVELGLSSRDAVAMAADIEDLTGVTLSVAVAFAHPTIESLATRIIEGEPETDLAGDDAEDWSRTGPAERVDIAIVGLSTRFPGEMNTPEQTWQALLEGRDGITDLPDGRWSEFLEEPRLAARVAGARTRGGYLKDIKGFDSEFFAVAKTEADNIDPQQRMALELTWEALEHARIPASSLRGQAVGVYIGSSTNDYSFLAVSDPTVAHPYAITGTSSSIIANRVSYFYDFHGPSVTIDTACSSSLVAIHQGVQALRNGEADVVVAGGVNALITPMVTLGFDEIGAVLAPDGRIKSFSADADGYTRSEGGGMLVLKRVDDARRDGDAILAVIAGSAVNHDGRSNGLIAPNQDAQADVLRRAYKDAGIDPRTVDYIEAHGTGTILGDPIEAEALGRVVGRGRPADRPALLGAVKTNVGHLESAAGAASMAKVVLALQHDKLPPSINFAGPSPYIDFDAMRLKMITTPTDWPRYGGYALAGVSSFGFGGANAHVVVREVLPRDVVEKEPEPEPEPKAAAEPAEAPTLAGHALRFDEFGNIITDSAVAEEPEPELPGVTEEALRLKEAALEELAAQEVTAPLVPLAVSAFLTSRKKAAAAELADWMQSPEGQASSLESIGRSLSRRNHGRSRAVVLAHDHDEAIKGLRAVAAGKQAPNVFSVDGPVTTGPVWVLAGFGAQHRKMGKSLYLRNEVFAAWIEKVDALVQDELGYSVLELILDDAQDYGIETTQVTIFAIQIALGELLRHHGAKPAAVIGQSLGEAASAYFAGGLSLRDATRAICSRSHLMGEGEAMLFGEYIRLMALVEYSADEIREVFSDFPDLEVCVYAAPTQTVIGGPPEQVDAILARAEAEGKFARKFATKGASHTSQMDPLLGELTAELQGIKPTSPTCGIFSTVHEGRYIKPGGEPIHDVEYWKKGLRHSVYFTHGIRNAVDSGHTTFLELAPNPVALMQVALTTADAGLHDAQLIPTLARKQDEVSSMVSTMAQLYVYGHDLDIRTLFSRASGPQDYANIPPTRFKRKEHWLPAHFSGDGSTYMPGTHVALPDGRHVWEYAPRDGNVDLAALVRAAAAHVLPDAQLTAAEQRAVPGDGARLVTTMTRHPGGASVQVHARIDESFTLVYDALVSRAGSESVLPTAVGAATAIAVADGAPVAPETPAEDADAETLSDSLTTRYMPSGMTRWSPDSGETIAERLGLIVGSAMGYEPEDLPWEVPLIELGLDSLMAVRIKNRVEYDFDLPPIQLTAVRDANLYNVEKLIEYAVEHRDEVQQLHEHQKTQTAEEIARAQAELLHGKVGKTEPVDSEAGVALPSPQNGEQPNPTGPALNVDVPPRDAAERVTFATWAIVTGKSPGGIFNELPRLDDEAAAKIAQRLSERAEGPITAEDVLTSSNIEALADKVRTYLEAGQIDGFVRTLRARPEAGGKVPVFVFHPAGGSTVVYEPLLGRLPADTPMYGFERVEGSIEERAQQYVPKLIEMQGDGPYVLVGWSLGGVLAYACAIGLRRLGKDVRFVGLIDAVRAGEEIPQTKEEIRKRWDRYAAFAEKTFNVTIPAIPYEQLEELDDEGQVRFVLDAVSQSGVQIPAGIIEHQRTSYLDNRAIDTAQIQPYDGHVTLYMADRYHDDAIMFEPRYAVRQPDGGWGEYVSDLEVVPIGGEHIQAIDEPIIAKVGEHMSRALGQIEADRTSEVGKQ

From ChEMBL document CHEMBL3988442, “University of Dundee, Small-Polar-MMV Screening Library” (2021).

The filed quantity is “Percent Effect” (%).
How 0% and 100% were set is not recorded. Most values in the screen are low, and negative values occur.
The compounds are a random part of those screened.
Two or more numbers in one place are separate tests of the same structure; such repeats can differ widely.

A: 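Lysine-tRNA ligase, Plasmodium falciparum 3D7 (UniProt Q8IDJ8). Enzyme assay of the cytosolic lysyl-tRNA synthetase in 384-well plates, read by luminescence. Concentration: 30 µM. Direction is inferred from only a few compounds that gave an IC50; most scored high, so higher reads as stronger inhibition. Size under these conditions: about 69,000 compounds, about 49 of them at 50% or above in at least one test.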
B: 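Enzyme assay of histidyl-tRNA synthetase; the read-out is not stated. Target: Histidine-tRNA ligase, Trypanosoma cruzi CL Brener (UniProt Q4DA54). Compounds at 30 µM. The record gives no direction; compounds that gave an IC50 in retests scored well above the rest, so higher reads as stronger inhibition. Size under these conditions: about 69,000 compounds, about 31 of them at 50% or above in at least one test.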
C: 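Cell assay of Leishmania donovani living inside macrophages; the read-out is not stated. Concentration: 30 µM. Higher reads as stronger inhibition (inferred: compounds with an IC50 in retests scored well above the rest). Of about 69,000 compounds tested this way, about 1,000 (1.5%) reached 50% or more in at least one test.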
D: 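Polyketide synthase Pks13, Mycobacterium tuberculosis (UniProt I6X8D2). Enzyme assay of the thioesterase domain of polyketide synthase 13; the read-out is not stated. Concentration: 30 µM. The record gives no direction; the compounds picked for IC50 retests had high values, so higher reads as stronger inhibition. Size under these conditions: about 67,000 compounds, about 300 of them at 50% or above in at least one test.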

* O=C(O)C(F)(F)F.O=C(O)C(F)(F)F.[H][C@@]12OCCN(C(=O)c3cncc(C)c3)[C@@]1([H])CC[C@H]2OCCN(C)C : C: 8.685%
* CN(CC1CCCCC1)C(=O)c1ccc(-n2ncc(C#N)c2N)cc1 : A: 2.207%; B: 2.662%; C: 18.52%; D: 52.69%
* Cc1cccc(C(=O)NC(C)CN2CCCC2=O)n1 (stereo not drawn) : A: -1.624%; B: 3.55%; C: 8.444%; D: -45.56%
* O=C(O)c1cc2c(nc1O)CC(c1cccs1)CC2=O (stereo not drawn) : A: 4.653%; B: -2.732%; C: -9.054%; D: -16.19%
* Cn1nccc1CN1CCOC(c2cccc(-c3cncnc3)n2)C1 (stereo not drawn) : A: -1.132%; B: 1.515%; D: -12.01%
* C[C@@H]1CN(C(=O)c2cccs2)C[C@]12CCN(CCN(C)C)C2=O : A: -3.259%; B: -0.7519%; D: -12.57%
* CS(=O)(=O)Cc1ccc(C(=O)NC2CCc3nccn3C2)o1 (stereo not drawn) : A: -0.06767%; B: 0%; C: 16.92%; D: -2.986%
* CN(Cc1ccc(-n2cccn2)cc1)C[C@@H]1CCCN2CCCC[C@H]12 : A: -7.626%; B: 0.6061%; D: -1.181%
* CCc1n[nH]c(C(=O)N2CCN(c3ccc4ccccc4c3)CC2)c1C : A: 7.177%; B: 3.863%; C: 1.961%
* CN1CCN(C(=O)N2CCCC2)Cc2cccnc21 : A: 7.189%; B: 4.95%; C: 17.24%; D: -41.77%
* O=C(Cc1ccc(F)cc1)NS(=O)(=O)c1ccc(F)c(F)c1 : A: 11.67%; B: 6.404%; C: 20.99%; D: -13.08%
* O=C1CC(NS(=O)(=O)c2ccc(F)c(Cl)c2)CN1 (stereo not drawn) : A: 2.803%; B: 3.518%; C: 22.35%; D: -7.952%
* Cn1nccc1-c1ccc2nc(C3CCN(CC4CC4)CC3)nn2c1.O=C(O)C(F)(F)F.O=C(O)C(F)(F)F : C: -0.9784%
* CS(=O)(=O)NC1CCc2c(ccc(=O)n2CC2CC2)C1 (stereo not drawn) : A: 5.755%; B: 7.104%; C: 9.129%; D: -17.79%
* NC[C@H]1CC[C@H](C(NC(=O)CC2CCCC2)c2ccccn2)CC1 (stereo partly drawn) : A: 1.853%; B: 9.89%; C: -0.2917% & 2.81%; D: 9.547%
* CS(=O)(=O)NCc1ncn2c1CN(C(=O)C1CCCCC1)CCC2 : A: 5.664%; B: 2.521%; C: 12.27%; D: -0.3203%
* Cc1cc(F)c(S(=O)(=O)N(C)CCn2cccn2)cc1F : A: 6.564%; B: 6.897%; C: -7.199%; D: 4.395%
* COc1ccccc1C1(CNc2snc(Cl)c2C#N)CCCC1 : A: 6.723%; B: -15.52%; C: 7.398%; D: -14.5%
* O=C(N[C@H]1CN[C@H]2CCCO[C@H]21)c1cscn1 : A: 0.2858%; B: 0%; D: -13.18%
* Cc1ccc2c(c1)N(C(=O)C1CCCOC1)CCC2 (stereo not drawn) : A: 6.251%; B: 3.665%; C: 14.18%; D: -46.16%
* CCC(CC)c1cc(C(=O)N2CCN(CC(N)=O)CC2)on1 : A: 9.569%; B: 3.448%; C: 24.82%; D: -20.95%
* COc1cc(C2SCC(=O)Nc3[nH]ncc32)cc2c1OCO2 (stereo not drawn) : A: 5.939%; B: -0.5181%; C: 1.862%; D: -16.06%
* COc1cc(N2CCN(Cc3ccc(C)o3)C(CCO)C2)nc(N)n1 (stereo not drawn) : A: -1.438%; B: 5.455%; C: 10.72%; D: -3.573%
* O=C(CCc1c[nH]cn1)N1CC[C@@H](c2ccc3ccccc3c2)[C@H](O)C1 : A: -3.626%; B: 4.564%; C: 13.13%; D: -37.77%

For reference, 2 entries once more:

Compound	A	B	C	D
CS(=O)(=O)Cc1ccc(C(=O)NC2CCc3nccn3C2)o1 (stereo not drawn)	-0.06767%	0%	16.92%	-2.986%
COc1cc(C2SCC(=O)Nc3[nH]ncc32)cc2c1OCO2 (stereo not drawn)	5.939%	-0.5181%	1.862%	-16.06%